# Test results from patent US9249154B2, “Compounds and therapeutic use thereof for protein kinase inhibition” (priority 2008, dated 2016).
# For at least one compound, name, drawing or mass did not settle the structure.
# Test system: Mouse Lung Cancer (3LL)
# Assay: In vitro anti-cancer cell activity (cellular toxicity, SRB and MTT methods, 72 hours)
# Format: cell-based
# Details: read-out: In vitro anti-cancer cell activities IC50, Mouse Lung Cancer (3LL)
smiles,measurement,value
"NC(=O)c1nnc(Cc2ccoc2)c2cc(-c3ccc(Cl)cc3)sc12 [Compound 15, 2-(4-chlorophenyl)-4-(3-furanmethy)-thieno[2,3-d]pyridazine-7-carboxylic acid amide]",IC50,804 µM
